Measured values as given in doi:10.1101/2021.03.17.435124.
No constants are given. Whether binding was seen depends on the method and setting. In cells and extracts the contact can be indirect. These calls come from enrichment with a bait or labelling near it, and not all partners need be listed. For some of these results: Where a sequence is shown, tags or fusion partners need not be part of it.

By UniProt entry, the sequences of proteins in these tests, tags left out.
UniProt Q14690, whole entry: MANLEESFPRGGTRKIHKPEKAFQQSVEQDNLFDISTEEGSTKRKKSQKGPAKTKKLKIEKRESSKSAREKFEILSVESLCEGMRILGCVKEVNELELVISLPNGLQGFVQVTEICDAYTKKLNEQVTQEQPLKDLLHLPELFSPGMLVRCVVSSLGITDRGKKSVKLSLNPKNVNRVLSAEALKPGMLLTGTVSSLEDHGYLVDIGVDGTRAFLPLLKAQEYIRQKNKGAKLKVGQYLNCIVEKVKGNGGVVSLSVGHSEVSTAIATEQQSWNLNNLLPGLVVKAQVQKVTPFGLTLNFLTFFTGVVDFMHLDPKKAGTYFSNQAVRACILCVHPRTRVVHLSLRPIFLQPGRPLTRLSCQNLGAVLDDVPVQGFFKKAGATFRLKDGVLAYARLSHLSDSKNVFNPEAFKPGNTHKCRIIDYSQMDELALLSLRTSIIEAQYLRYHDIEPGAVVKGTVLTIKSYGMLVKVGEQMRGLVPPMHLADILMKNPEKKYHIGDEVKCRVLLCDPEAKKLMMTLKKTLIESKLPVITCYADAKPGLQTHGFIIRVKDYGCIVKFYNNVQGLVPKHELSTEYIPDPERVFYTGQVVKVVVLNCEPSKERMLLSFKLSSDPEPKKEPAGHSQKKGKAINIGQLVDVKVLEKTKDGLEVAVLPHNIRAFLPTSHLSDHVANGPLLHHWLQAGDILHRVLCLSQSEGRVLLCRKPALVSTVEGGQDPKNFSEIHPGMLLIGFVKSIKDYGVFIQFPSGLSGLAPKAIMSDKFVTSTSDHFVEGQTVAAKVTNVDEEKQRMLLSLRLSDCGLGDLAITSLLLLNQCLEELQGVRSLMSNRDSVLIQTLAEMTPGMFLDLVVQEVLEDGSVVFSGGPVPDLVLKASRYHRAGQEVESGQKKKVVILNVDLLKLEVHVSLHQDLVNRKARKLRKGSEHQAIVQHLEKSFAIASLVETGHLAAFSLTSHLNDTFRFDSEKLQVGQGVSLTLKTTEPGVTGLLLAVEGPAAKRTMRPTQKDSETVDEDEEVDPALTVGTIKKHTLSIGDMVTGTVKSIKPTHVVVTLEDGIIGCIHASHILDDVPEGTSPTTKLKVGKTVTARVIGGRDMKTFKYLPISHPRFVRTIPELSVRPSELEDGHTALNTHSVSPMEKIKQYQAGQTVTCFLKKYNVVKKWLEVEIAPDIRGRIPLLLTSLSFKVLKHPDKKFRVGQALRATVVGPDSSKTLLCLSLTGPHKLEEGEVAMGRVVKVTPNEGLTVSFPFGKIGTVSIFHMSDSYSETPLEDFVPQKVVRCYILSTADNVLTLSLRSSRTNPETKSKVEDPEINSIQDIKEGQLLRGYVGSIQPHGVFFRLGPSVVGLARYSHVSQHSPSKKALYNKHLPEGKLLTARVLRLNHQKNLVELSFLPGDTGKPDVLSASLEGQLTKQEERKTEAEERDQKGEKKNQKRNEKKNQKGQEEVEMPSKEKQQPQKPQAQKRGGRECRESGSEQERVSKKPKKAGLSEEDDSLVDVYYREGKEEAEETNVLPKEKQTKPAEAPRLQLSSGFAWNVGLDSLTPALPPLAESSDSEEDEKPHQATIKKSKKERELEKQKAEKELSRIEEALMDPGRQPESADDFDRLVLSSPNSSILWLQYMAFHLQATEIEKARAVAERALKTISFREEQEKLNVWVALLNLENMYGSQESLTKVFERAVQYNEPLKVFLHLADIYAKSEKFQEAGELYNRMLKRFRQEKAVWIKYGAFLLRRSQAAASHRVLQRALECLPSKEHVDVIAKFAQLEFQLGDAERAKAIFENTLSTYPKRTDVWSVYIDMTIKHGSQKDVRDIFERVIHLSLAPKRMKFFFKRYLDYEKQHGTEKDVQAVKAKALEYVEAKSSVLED

T1: 3xFLAG-RRP1B (UniProt Q14684)
T1 sequence: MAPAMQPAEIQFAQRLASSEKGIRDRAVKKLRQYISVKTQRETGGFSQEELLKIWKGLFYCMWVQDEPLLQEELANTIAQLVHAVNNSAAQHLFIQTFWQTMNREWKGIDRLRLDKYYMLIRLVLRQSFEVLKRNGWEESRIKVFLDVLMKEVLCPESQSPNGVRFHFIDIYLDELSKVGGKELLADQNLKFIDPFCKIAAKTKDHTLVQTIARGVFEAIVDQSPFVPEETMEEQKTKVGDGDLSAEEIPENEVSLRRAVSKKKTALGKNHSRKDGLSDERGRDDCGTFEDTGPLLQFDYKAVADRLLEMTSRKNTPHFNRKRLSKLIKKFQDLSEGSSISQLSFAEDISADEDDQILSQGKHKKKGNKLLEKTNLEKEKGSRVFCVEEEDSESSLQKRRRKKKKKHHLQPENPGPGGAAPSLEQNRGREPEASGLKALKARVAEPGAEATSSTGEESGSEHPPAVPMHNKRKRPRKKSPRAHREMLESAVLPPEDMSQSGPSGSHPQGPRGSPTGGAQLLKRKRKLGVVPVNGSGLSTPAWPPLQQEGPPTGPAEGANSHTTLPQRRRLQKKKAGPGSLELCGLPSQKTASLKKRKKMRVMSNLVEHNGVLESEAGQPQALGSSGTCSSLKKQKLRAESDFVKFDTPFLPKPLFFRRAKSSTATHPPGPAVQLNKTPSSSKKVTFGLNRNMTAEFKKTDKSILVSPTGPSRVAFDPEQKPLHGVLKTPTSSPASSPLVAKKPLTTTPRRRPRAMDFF


Experiments:
3xFLAG-RRP1B = molecular target: T1, 3xFLAG-RRP1B; assay: affinity purification with mass spectrometry
3xFLAG-PDCD11 = 3xFLAG-PDCD11 (UniProt Q14690); assay: affinity purification with mass spectrometry

Row | Molecule | binding (3xFLAG-RRP1B) | binding (3xFLAG-PDCD11)
1 | helicase DDX21 (from UniProt Q9NR30 1-783) | binds | binds
2 | cytokine MDK (protein, UniProt P21741 21-143) VAKKKDKVKKGGPGSECAEWAWGPCTPSSKDCGVGFREGTCGAQTQRIRCRVPCNWKKEFGADCKYKFENWGACDGGTGTKVRQGTLKKARYNAQCQETIRVTKPCTPKTKAKAKAKKGKGKD | binds | binds
